Laboratory results published in publication doi:10.1101/2023.02.23.529712.
These are yes or no findings as the source states them, for the method shown. A result given as binding can be weak or reduced; the word gives no strength.

Protein sequences, listed by entry. Tags and fused reporters are not part of them. Lines headed by an entry give the natural chain unless they say otherwise; changes in a name come on top.
UniProt P29066: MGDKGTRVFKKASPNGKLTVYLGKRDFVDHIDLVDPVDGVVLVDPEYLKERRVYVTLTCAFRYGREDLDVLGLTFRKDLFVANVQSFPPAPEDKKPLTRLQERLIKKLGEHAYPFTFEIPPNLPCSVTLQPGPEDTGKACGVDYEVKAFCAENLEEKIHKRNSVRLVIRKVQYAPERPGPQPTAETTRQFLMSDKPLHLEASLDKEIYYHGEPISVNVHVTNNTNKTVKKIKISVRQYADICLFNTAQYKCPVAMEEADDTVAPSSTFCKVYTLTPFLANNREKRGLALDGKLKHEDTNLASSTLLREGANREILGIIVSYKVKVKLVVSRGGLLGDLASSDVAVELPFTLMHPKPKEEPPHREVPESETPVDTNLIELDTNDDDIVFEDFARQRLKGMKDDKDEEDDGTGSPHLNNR
UniProt Q92847: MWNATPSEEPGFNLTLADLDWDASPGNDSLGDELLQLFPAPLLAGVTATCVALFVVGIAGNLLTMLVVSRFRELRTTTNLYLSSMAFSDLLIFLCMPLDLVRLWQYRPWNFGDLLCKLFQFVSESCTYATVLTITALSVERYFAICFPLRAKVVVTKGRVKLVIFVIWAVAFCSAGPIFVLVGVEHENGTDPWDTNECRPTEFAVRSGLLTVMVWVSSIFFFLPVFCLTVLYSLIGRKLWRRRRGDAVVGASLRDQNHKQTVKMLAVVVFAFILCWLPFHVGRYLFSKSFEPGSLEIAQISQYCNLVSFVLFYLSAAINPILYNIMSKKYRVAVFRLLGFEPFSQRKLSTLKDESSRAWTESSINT

Biological target: recombinant rat arrestin-2 (rat) (UniProt P29066)
Assay: NMR titration

In the case of “phosphomimetic GHSR C-terminus (from UniProt Q92847) (domain or fragment)”, the binding is reported as “binds”.
